Data as given in PubChem BioAssay AID686943 (Drosophila RNAi Screening Center, 2013)
In all, the deposit lists about 23,000 reagents; this is a random part of those with a known target gene and a result. 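Extra replicates exist only for a retested subset of genes; insulin dose and duration not given; both raised and lowered dpERK matter.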 Names joined by + are all predicted targets of the reagent. Not all columns of the deposit are shown. No sequences are given here. Not stated in the record: the amount of reagent, the time to read-out.

Aim: 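Knockdowns that increase or decrease active ERK after insulin receptor stimulation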 (primary screen)
Cell system: Drosophila S2R+ haemocyte-like cells expressing YFP-tagged ERK (Rolled)
Knock-down reagent: long dsRNA against Drosophila genes
Treatment: insulin stimulation versus unstimulated cells; dose and duration not given
Read-out: 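Antibody staining for doubly phosphorylated ERK divided by ERK-YFP signal, as plate z-scores, in insulin-treated and untreated cells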
Direction: replicate 1, z-score of dpERK with insulin: higher = more active ERK per ERK-YFP after insulin

replicate 1, z-score of dpERK with insulin, by gene and reagent
Tmtc2: DRSC00272 -0.81
CNT2: DRSC07073 0.97
verm: DRSC11038 0.26
CG6067: DRSC18399 0.09
CG7320: DRSC10810 0.67
Nplp2: DRSC09824 0.21
MED22: DRSC18175 1.92
levy: DRSC04289 -0.56
CG5493 + CG5327: DRSC06938 0.34
Rab1: DRSC16808 1.4
CG9555: DRSC03264 -0.35

In a second layout: entries from further up.
| Gene | DRSC id | replicate 1, z-score of dpERK with insulin |
| --- | --- | --- |
| CG7320 | DRSC10810 | 0.67 |
| Nplp2 | DRSC09824 | 0.21 |
| MED22 | DRSC18175 | 1.92 |

More reagents follow.
replicate 1, z-score of dpERK with insulin, by gene and reagent
Pld3: DRSC03167 0.21
Brd: DRSC09685 0.38
w-cup: DRSC03048 0.83
Fhos: DRSC08943 -0.06; DRSC10545 0.65; DRSC10546 0.7; DRSC10547 0.71
CG31955: DRSC00285 0.53
dpr4: DRSC14531 0.1; DRSC14929 1.2
Erk7: DRSC18127 -0.03; DRSC18227 0.14; DRSC21895 0.35
